Assay results: US8080367B2, “Regulation of cell survival by HSP90 and IP6K2” (The Johns Hopkins University, priority 2006, dated 2011)

Target: T1, IP6K2-HSP90 binding
T1 construct: other: purified proteins; 250 nM HSP90 from HeLa preincubated with d
Assay: In vitro HSP90-IP6K2 binding assay with purified proteins
Parameters: species or system human
Conditions: 250 nM HSP90 from HeLa preincubated with drug 30 min 37° C., then myc-IP6K2 beads, western blot, read-out: concentration reducing IP6K2-HSP90 binding by 50%
From the text: FIG. 3A, 3B, 3C. […] FIG. 3E.

CN[C@@H]1C[C@H]2O[C@@](C)([C@@H]1OC)n1c3ccccc3c3c4c(c5c6ccccc6n2c5c31)C(=O)NC4 [staurosporine]
IC50: ~100 nM
